Assay results: PubChem BioAssay AID2685 (National Center for Advancing Translational Sciences (NCATS), 2010)
Screen size: about 320,000 compounds; about 2,100 (0.66%) were called active. The inconclusive results got no clear call from the source; some entries with a clear call stand among them for comparison. The call rests on the fitted dose curve; in most records, active means well fitted inhibition curve with a large enough effect in the signal ratio, with a control signal flat (not every such curve was filed as active); inconclusive means small, poorly fitted or top-dose-only effect, or effect the other way, or a change in a side signal; inactive means flat fitted curve, though single readings scatter; the % refers to the signal ratio. A potency beside an inconclusive call is a rough fit, not a confirmed value.

Test: qHTS Assay for Lipid Storage Modulators in Drosophila S3 Cells
Settings: BODIPY lipid droplet fluorescence, 18-24 h, cells fed with added oleic acid; lipid storage change, negative = inhibition: at 46.1 µM (top of the series) unless noted
Summary of the method: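 Drosophila S3 cells loaded with oleic acid (400 uM, as added) and compounds at several concentrations; lipid droplets imaged by 488-nm laser-scanning cytometry, 500–530 nm intensity and object ratio to cell channel. Percent activity normalized to 20 uM Triacsin C.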
On the % scale 0 is the no-effect control and ±100 the full control effect; potency means the concentration at half of the fitted maximal effect.

Row | SMILES | lipid storage change, negative = inhibition | Potency
1 | CCCOc1ccccc1C(=O)NC(CO)C(=O)O (configuration not stated) | inconclusive: -16.3% | 
2 | O/C(=C\c1ccc2ccccc2n1)c1ccncc1 | inconclusive: 11.2% | 
3 | COc1cc(/C=C2/NC(=O)N(CC(=O)Nc3cccc(C)c3)C2=O)ccc1OCC(N)=O |  | inconclusive: 23.1 µM [falling, single point]
4 | Cc1cc(C)cc(NC(=O)NCc2nnc(SCc3ccccc3)n2C)c1 | inconclusive: 16.5% | 
5 | COc1ccc(-c2cc(C(=O)NC3CCCC3)no2)cc1 | inactive | 
6 | COc1ccccc1CNS(=O)(=O)c1ccc(Br)s1 |  | inconclusive: 29.1 µM [falling, single point]
7 | Cc1ccc(Cl)cc1NC(=O)C1CCCCC1C(=O)O (configuration not stated) |  | inconclusive: 9.2 µM [falling, single point]
8 | CC(C)Cn1cc(C(=O)NCCCN2CCCC2=O)c2c3ccccc3n(C)c2c1=O | inconclusive: -4.98% | 
9 | CCOC(=O)c1sc2nc(CSc3ccccc3)nc(N3CCC(C(N)=O)CC3)c2c1C | inconclusive: 11% | 
10 | CC(OC(=O)c1ccc(Cl)cc1)C(=O)NCc1ccc2c(c1)OCO2 (configuration not stated) |  | inconclusive: 29.1 µM [activator, single point]
11 | COc1ccc(NC(=O)CN2CCN(S(=O)(=O)c3cccs3)CC2)cc1Cl | inconclusive: 6.29% | 
12 | COc1ccc(C2CC(C(F)(F)F)n3nc(C(=O)Nc4ccc5c(c4)OCO5)cc3N2)cc1 (configuration not stated) | inconclusive: 5.75% | 
13 | CC(SCc1ccccc1)C(=O)Nc1ccc(F)cc1 (configuration not stated) |  | inconclusive: 29.1 µM [activator, single point]
14 | CCc1ccc(C(=O)NNC(=O)c2ccc(=O)n(C)n2)cc1 |  | inconclusive: 5.17 µM [falling, full curve]
15 | CCOc1ccc(C2CC(c3ccc(OC)cc3)n3ncnc3N2)cc1 (configuration not stated) | inconclusive: 34.4% | 
16 | O=C(NCc1ccco1)c1cccc(-c2nnc(-c3ccccc3)o2)c1 | inconclusive: 6.22% | 
17 | Cc1cccc(CS(=O)(=O)Cc2ccc(C(=O)NC3CCCCC3)o2)c1 | inconclusive: -5.18% | 
18 | CC(C)(C)n1ncc2c(=O)n(Cc3ccc(Cl)cc3Cl)cnc21 |  | inconclusive: 29.1 µM [rising, single point]
19 | O=C(NNc1c(Cl)cc(Cl)cc1Cl)c1cccc([N+](=O)[O-])c1 | inconclusive: -73.1% | 
20 | CCCCCNC(=O)c1cc(S(=O)(=O)N2CCCC2)ccc1F | inconclusive: 2.32% | 
21 | O=C(c1ccc(Cn2cc(Cl)cn2)cc1)N1CCN(c2ccccc2)CC1 | inconclusive: 6.58% | 
22 | O=C(O)COc1ccccc1C1C2C(=O)N(c3ccccc3)C(=O)C2ON1c1ccccc1 (configuration not stated) |  | inconclusive: 29.1 µM [falling, single point]

From entry 18 to 21, as listed above:
Row | SMILES | lipid storage change, negative = inhibition | Potency
18 | CC(C)(C)n1ncc2c(=O)n(Cc3ccc(Cl)cc3Cl)cnc21 |  | inconclusive: 29.1 µM [rising, single point]
19 | O=C(NNc1c(Cl)cc(Cl)cc1Cl)c1cccc([N+](=O)[O-])c1 | inconclusive: -73.1% | 
20 | CCCCCNC(=O)c1cc(S(=O)(=O)N2CCCC2)ccc1F | inconclusive: 2.32% | 
21 | O=C(c1ccc(Cn2cc(Cl)cn2)cc1)N1CCN(c2ccccc2)CC1 | inconclusive: 6.58% | 
